Results are given in words; binding and its absence hold for the method and conditions named. A result given as binding can be weak or reduced; the word gives no strength.

Sequences of proteins named here, by UniProt entry; tags and fusion partners are left off. A change or cut given only in a name is not applied to a line headed by its entry. Residues count along the entry.
UniProt Q02763: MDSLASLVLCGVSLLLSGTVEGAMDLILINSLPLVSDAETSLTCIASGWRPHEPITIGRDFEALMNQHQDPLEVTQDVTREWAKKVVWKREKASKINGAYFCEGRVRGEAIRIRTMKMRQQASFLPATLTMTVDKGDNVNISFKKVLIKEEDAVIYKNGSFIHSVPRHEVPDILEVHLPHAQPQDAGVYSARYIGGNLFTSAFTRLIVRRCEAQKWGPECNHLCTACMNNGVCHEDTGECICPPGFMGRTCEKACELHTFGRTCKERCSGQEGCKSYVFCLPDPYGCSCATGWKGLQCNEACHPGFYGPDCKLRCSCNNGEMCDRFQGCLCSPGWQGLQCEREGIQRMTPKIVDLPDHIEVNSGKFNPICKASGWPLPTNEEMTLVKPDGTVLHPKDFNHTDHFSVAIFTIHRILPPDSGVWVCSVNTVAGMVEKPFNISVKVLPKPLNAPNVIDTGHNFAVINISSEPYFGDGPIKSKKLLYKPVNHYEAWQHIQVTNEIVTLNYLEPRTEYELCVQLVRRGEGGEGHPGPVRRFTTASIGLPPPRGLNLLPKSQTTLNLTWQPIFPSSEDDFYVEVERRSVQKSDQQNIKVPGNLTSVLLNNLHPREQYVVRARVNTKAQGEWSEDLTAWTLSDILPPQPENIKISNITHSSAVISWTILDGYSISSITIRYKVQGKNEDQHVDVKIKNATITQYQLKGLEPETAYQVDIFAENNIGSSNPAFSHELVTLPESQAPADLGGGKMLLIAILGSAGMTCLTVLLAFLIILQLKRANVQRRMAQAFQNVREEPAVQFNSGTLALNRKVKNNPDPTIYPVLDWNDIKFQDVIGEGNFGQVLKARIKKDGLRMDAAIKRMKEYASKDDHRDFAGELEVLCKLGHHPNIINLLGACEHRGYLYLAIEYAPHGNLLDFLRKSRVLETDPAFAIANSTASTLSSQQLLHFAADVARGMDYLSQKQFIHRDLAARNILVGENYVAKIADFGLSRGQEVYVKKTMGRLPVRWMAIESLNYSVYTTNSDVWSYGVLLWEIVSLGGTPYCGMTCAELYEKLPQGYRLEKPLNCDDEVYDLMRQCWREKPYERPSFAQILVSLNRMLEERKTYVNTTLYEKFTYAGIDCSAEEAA
UniProt O15123, residues 19-496: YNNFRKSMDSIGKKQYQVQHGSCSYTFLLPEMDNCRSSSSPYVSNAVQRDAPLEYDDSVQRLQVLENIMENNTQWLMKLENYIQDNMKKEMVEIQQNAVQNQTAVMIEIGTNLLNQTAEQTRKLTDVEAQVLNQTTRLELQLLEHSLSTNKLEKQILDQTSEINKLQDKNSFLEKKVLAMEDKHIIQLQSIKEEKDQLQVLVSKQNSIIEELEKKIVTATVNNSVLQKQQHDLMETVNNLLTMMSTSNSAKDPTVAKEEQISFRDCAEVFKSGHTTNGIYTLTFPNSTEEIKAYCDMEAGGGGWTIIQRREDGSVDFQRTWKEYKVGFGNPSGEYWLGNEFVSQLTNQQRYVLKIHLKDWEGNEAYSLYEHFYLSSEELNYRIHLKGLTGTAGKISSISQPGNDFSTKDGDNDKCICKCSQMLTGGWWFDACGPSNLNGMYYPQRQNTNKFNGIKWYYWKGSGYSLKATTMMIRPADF

For one substance, binding results are on record in paper PMC9981882.

The target in the test is Tie2 (tunica interna endothelial cell kinase 2), immobilized on the Octet biosensor (UniProt Q02763). Kind of test: BLI; Octet Red 96e, Ni-NTA sensors, Tie2 immobilised; first step 100 nM ANGPT1 or ANGPT2 in PBS (up to 2200 sec), second step PBS, 100 nM ANGPT1 (or ANGPT2) or 27.2 nM 4E2; order of the steps also reversed; both purified. On the technique in general: Biolayer interferometry detects binding as a change in optical thickness at a sensor tip.

For the substance “angiopoietin-2 (from UniProt O15123 19-496) (ligand)”, the binding result is reported as “binds”.
